Results: paper PMC13462943

Sequences of proteins named here, by UniProt entry; tags and fusion partners are left off.
UniProt Q96KQ7: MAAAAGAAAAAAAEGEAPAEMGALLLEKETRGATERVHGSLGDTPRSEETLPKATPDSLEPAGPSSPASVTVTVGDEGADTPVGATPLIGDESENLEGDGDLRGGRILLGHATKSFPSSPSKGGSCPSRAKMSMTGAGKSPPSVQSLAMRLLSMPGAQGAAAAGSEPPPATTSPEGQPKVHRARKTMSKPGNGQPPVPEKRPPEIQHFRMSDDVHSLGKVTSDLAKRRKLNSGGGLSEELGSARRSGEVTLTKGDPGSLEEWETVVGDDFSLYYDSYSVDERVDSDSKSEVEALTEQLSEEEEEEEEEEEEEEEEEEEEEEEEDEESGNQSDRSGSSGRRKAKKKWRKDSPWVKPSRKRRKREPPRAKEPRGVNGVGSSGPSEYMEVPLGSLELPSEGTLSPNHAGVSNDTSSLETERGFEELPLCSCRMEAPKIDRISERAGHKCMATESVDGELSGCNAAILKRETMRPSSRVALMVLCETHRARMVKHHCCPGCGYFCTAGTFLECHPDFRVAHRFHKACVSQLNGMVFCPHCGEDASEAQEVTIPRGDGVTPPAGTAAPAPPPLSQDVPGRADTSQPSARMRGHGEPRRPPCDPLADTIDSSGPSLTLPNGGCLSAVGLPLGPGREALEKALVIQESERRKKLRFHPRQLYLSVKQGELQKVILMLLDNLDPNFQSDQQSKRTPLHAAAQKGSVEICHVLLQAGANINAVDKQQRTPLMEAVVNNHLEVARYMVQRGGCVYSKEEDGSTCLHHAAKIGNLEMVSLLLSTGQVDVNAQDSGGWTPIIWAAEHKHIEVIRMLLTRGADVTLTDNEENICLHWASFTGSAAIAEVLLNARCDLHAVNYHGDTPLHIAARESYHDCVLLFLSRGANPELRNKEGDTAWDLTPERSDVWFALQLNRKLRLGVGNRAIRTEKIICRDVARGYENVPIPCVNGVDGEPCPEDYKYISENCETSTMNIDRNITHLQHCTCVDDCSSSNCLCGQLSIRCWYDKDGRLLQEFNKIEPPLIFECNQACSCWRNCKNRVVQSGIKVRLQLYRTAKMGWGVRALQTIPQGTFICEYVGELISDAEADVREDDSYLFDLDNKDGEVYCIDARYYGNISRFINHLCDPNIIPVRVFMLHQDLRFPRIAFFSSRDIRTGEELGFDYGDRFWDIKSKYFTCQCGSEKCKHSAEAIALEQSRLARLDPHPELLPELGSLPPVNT
UniProt O95785: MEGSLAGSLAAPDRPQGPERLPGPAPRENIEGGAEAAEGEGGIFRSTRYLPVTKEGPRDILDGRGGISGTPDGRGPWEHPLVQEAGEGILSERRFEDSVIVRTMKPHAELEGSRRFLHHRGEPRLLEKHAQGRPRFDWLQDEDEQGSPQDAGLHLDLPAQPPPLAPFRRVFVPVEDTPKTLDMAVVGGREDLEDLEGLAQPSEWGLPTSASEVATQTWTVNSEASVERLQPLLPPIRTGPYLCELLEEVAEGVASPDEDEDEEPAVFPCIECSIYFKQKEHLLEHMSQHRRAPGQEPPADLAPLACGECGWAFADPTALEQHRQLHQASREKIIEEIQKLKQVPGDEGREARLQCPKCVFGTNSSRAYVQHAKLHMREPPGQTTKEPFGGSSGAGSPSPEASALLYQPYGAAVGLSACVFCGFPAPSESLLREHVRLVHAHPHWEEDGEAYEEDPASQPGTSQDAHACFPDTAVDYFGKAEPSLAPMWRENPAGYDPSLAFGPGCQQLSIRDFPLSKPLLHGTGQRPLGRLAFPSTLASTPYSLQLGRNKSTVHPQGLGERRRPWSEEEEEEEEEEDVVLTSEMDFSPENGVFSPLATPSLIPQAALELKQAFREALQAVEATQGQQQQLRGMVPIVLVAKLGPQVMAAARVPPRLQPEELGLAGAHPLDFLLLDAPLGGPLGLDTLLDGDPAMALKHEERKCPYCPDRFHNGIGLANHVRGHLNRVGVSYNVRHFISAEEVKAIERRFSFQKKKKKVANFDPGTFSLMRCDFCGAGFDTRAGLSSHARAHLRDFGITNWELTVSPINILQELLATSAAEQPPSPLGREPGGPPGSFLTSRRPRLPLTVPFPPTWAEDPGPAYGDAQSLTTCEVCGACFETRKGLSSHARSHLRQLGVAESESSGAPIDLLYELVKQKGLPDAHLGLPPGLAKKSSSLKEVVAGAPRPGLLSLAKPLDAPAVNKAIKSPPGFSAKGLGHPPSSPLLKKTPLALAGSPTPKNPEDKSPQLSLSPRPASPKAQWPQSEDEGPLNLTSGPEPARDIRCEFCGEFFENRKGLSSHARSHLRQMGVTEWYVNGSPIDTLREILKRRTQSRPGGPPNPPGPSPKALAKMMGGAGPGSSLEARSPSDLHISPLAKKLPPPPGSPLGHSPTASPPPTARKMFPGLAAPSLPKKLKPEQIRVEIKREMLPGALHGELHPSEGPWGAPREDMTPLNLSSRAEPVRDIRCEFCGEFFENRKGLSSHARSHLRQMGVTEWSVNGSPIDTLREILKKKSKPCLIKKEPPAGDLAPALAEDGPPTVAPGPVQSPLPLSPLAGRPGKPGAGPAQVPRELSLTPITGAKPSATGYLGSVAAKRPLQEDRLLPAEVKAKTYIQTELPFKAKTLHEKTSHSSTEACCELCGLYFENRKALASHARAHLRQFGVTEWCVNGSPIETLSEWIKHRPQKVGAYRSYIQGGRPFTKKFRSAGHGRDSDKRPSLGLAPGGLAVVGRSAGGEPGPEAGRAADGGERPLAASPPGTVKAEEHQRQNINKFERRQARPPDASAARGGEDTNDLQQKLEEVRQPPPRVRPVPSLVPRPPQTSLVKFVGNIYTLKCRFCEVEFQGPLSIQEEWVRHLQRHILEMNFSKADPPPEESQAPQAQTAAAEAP
UniProt Q96JM2: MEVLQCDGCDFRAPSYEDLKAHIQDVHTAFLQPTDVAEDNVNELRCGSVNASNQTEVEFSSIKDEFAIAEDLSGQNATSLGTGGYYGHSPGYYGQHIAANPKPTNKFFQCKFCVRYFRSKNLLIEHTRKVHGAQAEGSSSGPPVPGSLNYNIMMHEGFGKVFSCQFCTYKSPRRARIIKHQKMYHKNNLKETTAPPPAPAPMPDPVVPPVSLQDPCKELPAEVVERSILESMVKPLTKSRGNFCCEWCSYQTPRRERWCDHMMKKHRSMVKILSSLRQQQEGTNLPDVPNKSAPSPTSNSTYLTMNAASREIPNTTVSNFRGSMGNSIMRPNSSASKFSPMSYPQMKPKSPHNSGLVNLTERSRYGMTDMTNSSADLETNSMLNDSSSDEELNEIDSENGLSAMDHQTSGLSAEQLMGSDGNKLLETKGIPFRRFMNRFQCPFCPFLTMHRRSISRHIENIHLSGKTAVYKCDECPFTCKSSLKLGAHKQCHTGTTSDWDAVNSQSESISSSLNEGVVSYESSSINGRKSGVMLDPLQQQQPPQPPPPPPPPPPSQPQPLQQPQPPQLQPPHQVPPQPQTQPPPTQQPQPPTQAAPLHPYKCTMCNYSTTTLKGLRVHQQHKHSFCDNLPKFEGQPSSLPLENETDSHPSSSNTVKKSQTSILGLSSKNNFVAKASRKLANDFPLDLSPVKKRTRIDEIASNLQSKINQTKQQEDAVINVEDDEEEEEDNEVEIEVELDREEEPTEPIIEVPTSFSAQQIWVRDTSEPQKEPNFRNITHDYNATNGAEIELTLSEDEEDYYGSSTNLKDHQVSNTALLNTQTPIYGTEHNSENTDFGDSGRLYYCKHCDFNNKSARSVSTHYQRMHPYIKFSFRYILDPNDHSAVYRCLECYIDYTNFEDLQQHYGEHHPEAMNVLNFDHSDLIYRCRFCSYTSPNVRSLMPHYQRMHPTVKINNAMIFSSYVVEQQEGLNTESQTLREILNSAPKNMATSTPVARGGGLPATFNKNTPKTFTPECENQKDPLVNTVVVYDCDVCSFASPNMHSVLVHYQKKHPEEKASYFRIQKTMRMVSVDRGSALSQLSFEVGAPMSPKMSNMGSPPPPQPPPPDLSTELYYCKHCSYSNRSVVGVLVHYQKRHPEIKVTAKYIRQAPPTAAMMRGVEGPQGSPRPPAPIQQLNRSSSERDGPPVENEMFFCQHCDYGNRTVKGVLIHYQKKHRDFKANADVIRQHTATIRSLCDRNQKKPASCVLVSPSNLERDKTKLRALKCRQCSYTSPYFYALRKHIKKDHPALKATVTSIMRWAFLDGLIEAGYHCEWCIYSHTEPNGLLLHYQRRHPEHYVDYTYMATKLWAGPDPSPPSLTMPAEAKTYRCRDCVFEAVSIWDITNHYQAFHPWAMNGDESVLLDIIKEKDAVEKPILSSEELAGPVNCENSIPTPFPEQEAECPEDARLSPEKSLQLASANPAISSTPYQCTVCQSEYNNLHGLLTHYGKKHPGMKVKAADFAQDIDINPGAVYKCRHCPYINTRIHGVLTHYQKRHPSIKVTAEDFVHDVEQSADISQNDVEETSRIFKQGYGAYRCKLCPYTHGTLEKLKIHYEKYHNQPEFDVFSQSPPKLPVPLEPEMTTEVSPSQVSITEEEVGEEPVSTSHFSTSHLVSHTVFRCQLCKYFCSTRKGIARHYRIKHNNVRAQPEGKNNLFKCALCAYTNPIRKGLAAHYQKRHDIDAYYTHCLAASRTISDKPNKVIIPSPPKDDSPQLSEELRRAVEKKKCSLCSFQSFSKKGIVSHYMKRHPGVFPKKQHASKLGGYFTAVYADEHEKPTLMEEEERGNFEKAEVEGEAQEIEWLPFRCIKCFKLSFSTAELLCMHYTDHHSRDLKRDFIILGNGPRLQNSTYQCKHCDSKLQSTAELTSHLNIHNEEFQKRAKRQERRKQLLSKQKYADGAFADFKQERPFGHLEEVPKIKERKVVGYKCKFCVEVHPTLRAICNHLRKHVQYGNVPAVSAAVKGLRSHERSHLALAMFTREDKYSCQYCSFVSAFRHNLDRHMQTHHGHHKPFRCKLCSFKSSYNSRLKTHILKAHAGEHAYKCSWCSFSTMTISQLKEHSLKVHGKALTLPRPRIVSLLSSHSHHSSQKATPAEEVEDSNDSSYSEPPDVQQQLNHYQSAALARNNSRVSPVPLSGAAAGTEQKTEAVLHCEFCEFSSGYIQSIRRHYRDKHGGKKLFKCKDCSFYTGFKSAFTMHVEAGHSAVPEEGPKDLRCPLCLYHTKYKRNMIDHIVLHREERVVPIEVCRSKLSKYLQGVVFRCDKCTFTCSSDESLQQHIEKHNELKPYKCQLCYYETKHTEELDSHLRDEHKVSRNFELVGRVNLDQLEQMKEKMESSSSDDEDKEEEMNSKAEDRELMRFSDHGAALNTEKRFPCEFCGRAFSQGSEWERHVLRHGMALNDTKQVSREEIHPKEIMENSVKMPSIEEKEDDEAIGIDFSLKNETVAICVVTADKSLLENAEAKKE

Target: G9a, endogenous in iPSCs (human (endogenous in iPSCs)) (UniProt Q96KQ7)
Test: co-IP + affinity purification with mass spectrometry; rabbit anti-G9a on Dynabeads Protein A; whole cell extracts (100 µg) of control and patients' iPSCs, 45 min at 4 °C; washes with 200 mM NaCl, 1.5 mM MgCl2, 20 mM EDTA; eluate read by western blot (G9a, GLP) and LC-MS/MS; anti-PFAS IgG as negative control

Row | binding | Substance
1 | binds | WIZ, endogenous in iPSCs (from UniProt O95785 1-1651)
2 | binds | ZNF462, endogenous in iPSCs (from UniProt Q96JM2 1-2506)

No constants are given. Whether binding was seen depends on the method and setting. Binding seen in cells or lysates may run through a third protein. These calls come from enrichment with a bait or labelling near it, and not all partners need be listed.
